Laboratory results published in US11225503B2, “Crystobactamides” (HELMHOLTZ-ZENTRUM FÜR INFEKTIONSFORSCHUNG GMBH, priority 2013, dated 2022).
At least one compound was matched to its structure with a doubt left.

Test system: Cystobacter velatus MCy8071
Assay: Antibiotic resistance of the producer strain
Assay type: cell-based
Details: final concentration of all antibiotics 50 μg ml^−1
Experimental: MCy8071 is resistant against the following antibiotics: ampicillin, gentamycin, hygromycin, polymycin, bacitracin, spectinomycin, neomycin, and fusidinic acid. Weak growth is possible with cephalosporin and kasugamycin and no growth is possible with thiostrepton, trimethoprin, kanamycin, and oxytetracycline (final concentration of all antibiotics was adjusted to 50 μg ml^−1).

Row | Compound | growth of strain MCy8071 in presence of the antibiotic
1 | NC[C@H]1O[C@H](O[C@H]2[C@H](O)[C@@H](O[C@H]3O[C@H](CO)[C@@H](O)[C@H](N)[C@H]3O)[C@H](N)C[C@@H]2N)[C@H](O)[C@@H](O)[C@@H]1O [kanamycin] | no growth
2 | CN(C)[C@@H]1C(O)=C(C(N)=O)C(=O)[C@@]2(O)C(O)=C3C(=O)c4c(O)cccc4[C@@](C)(O)[C@H]3[C@H](O)[C@@H]12 [oxytetracycline] | no growth
